Substitutions are numbered along the chain they refer to. In names and notes the source's numbering stands. No constants are given. Whether binding was seen depends on the method and setting. Some results given as binding are weak or reduced against the parent protein; the word gives no strength. Where a sequence is shown, tags or fusion partners need not be part of it.

The chains behind the UniProt entries cited, without tags or fusion partners.
UniProt P25322: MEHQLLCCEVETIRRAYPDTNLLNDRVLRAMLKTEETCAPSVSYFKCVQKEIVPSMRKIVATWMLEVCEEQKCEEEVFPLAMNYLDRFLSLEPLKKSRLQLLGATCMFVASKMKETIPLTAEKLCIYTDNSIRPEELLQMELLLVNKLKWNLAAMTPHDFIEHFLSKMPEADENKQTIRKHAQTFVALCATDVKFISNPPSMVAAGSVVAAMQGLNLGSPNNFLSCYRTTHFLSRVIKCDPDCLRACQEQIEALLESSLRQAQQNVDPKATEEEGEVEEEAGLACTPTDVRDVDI

The target of this experiment is cyclin D1 (mouse) (UniProt P25322). Briefly: anti-Flag immunoprecipitation from Sf9 lysates, Western blot for cyclin D1. (A western blot detects proteins with antibodies after separation by electrophoresis.)

B1: Flag-tagged DMP1 deletion mutant M3 (amino acids 1-458) (protein, not shown: small tags and cut ends)
chain: MSTVEEDSDTVTVETVNSVTFTQDTDGNLILHCPQNDPDEVDSEDSTEPPHKRLCLSSEDDQSIDDATPCISVVALPLSENDQSFEVTMTATTEVADDELSEGTVTQIQILQNDQLDEISPLGTEEVSAVSQAWFTTKEDKDSLTNKGHKWKQGMWSKEEIDILMNNIERYLKARGIKDATEIIFEMSKDERKDFYRTIAWGLNRPLFAVYRRVLRMYDDRNHVGKYTPEEIEKLKELRIKHGNDWATIGAALGRSASSVKDRCRLMKDTCNTGKWTEEEEKRLAEVVHELTSTEPGDIVTQGVSWAAVAERVGTRSEKQCRSKWLNYLNWKQSGGTEWTKEDEINLILRIAELDVADENDINWDLLAEGWSSVRSPQWLRSKWWTIKRQIANHKDVSFPVLIKGLKQLHENQKNNPVLLENKSGSGVPNSNCNSSVQHVQIRVARLEDNTAISPSPM
Regarding B1, the binding entry was “binds”.

B2: Flag-tagged DMP1 deletion mutant M6 (amino acids 1-86; 170-761) (protein, not shown: small tags and cut ends)
chain: MSTVEEDSDTVTVETVNSVTFTQDTDGNLILHCPQNDPDEVDSEDSTEPPHKRLCLSSEDDQSIDDATPCISVVALPLSENDQSFERYLKARGIKDATEIIFEMSKDERKDFYRTIAWGLNRPLFAVYRRVLRMYDDRNHVGKYTPEEIEKLKELRIKHGNDWATIGAALGRSASSVKDRCRLMKDTCNTGKWTEEEEKRLAEVVHELTSTEPGDIVTQGVSWAAVAERVGTRSEKQCRSKWLNYLNWKQSGGTEWTKEDEINLILRIAELDVADENDINWDLLAEGWSSVRSPQWLRSKWWTIKRQIANHKDVSFPVLIKGLKQLHENQKNNPVLLENKSGSGVPNSNCNSSVQHVQIRVARLEDNTAISPSPMAALQIPVQITHVSSTDSPAASADSETITLNSGTLQTFEILPSFPLQPTGTPGTYLLQTSSSQGLPLTLTTNPTLTLAAAAPASPEQIIVHALSPEHLLNTSDNVTVQCHTPRVIIQTVATEDITSSLSQEELTVDSDLHSSDFPEPPDALEADTFPDEIPRPKMTIQPSFNNAHVSKFSDQNSTELMNSVMVRTEEEIADTDLKQEEPPSDLASAYVTEDLESPTIVHQVHQTIDDETILIVPSPHGFIQASDVIDTESVLPLTTLTDPIFQHHQEASNIIGSSLGSPVSEDSKDVEDLVNCH
For the molecule B2, the binding result is recorded as “binds”.

B3: Flag-tagged DMP1 deletion mutant M4 (amino acids 1-380) (protein, not shown: small tags and cut ends)
chain: MSTVEEDSDTVTVETVNSVTFTQDTDGNLILHCPQNDPDEVDSEDSTEPPHKRLCLSSEDDQSIDDATPCISVVALPLSENDQSFEVTMTATTEVADDELSEGTVTQIQILQNDQLDEISPLGTEEVSAVSQAWFTTKEDKDSLTNKGHKWKQGMWSKEEIDILMNNIERYLKARGIKDATEIIFEMSKDERKDFYRTIAWGLNRPLFAVYRRVLRMYDDRNHVGKYTPEEIEKLKELRIKHGNDWATIGAALGRSASSVKDRCRLMKDTCNTGKWTEEEEKRLAEVVHELTSTEPGDIVTQGVSWAAVAERVGTRSEKQCRSKWLNYLNWKQSGGTEWTKEDEINLILRIAELDVADENDINWDLLAEGWSSVRSPQWL
As to B3, the binding entry is “binds”.

B4: Flag-tagged DMP1 deletion mutant M7 (amino acids 1-169; 238-761) (protein, not shown: small tags and cut ends)
chain: MSTVEEDSDTVTVETVNSVTFTQDTDGNLILHCPQNDPDEVDSEDSTEPPHKRLCLSSEDDQSIDDATPCISVVALPLSENDQSFEVTMTATTEVADDELSEGTVTQIQILQNDQLDEISPLGTEEVSAVSQAWFTTKEDKDSLTNKGHKWKQGMWSKEEIDILMNNIELRIKHGNDWATIGAALGRSASSVKDRCRLMKDTCNTGKWTEEEEKRLAEVVHELTSTEPGDIVTQGVSWAAVAERVGTRSEKQCRSKWLNYLNWKQSGGTEWTKEDEINLILRIAELDVADENDINWDLLAEGWSSVRSPQWLRSKWWTIKRQIANHKDVSFPVLIKGLKQLHENQKNNPVLLENKSGSGVPNSNCNSSVQHVQIRVARLEDNTAISPSPMAALQIPVQITHVSSTDSPAASADSETITLNSGTLQTFEILPSFPLQPTGTPGTYLLQTSSSQGLPLTLTTNPTLTLAAAAPASPEQIIVHALSPEHLLNTSDNVTVQCHTPRVIIQTVATEDITSSLSQEELTVDSDLHSSDFPEPPDALEADTFPDEIPRPKMTIQPSFNNAHVSKFSDQNSTELMNSVMVRTEEEIADTDLKQEEPPSDLASAYVTEDLESPTIVHQVHQTIDDETILIVPSPHGFIQASDVIDTESVLPLTTLTDPIFQHHQEASNIIGSSLGSPVSEDSKDVEDLVNCH
Regarding B4, the binding result is listed as “binds”.

B5: Flag-tagged wildtype DMP1 (amino acids 1-761) (protein, not shown: small tags and cut ends)
chain: MSTVEEDSDTVTVETVNSVTFTQDTDGNLILHCPQNDPDEVDSEDSTEPPHKRLCLSSEDDQSIDDATPCISVVALPLSENDQSFEVTMTATTEVADDELSEGTVTQIQILQNDQLDEISPLGTEEVSAVSQAWFTTKEDKDSLTNKGHKWKQGMWSKEEIDILMNNIERYLKARGIKDATEIIFEMSKDERKDFYRTIAWGLNRPLFAVYRRVLRMYDDRNHVGKYTPEEIEKLKELRIKHGNDWATIGAALGRSASSVKDRCRLMKDTCNTGKWTEEEEKRLAEVVHELTSTEPGDIVTQGVSWAAVAERVGTRSEKQCRSKWLNYLNWKQSGGTEWTKEDEINLILRIAELDVADENDINWDLLAEGWSSVRSPQWLRSKWWTIKRQIANHKDVSFPVLIKGLKQLHENQKNNPVLLENKSGSGVPNSNCNSSVQHVQIRVARLEDNTAISPSPMAALQIPVQITHVSSTDSPAASADSETITLNSGTLQTFEILPSFPLQPTGTPGTYLLQTSSSQGLPLTLTTNPTLTLAAAAPASPEQIIVHALSPEHLLNTSDNVTVQCHTPRVIIQTVATEDITSSLSQEELTVDSDLHSSDFPEPPDALEADTFPDEIPRPKMTIQPSFNNAHVSKFSDQNSTELMNSVMVRTEEEIADTDLKQEEPPSDLASAYVTEDLESPTIVHQVHQTIDDETILIVPSPHGFIQASDVIDTESVLPLTTLTDPIFQHHQEASNIIGSSLGSPVSEDSKDVEDLVNCH
As to B5, the binding result is given as “binds”.

B6: Flag-tagged DMP1 point mutant M11 (K319E) (protein, not shown: small tags and cut ends)
chain: B5 chain with K319E
Consider B6, for which the binding entry is recorded as “binds”.

B7: Flag-tagged DMP1 deletion mutant M1 (amino acids 1-661) (protein, not shown: small tags and cut ends)
chain: MSTVEEDSDTVTVETVNSVTFTQDTDGNLILHCPQNDPDEVDSEDSTEPPHKRLCLSSEDDQSIDDATPCISVVALPLSENDQSFEVTMTATTEVADDELSEGTVTQIQILQNDQLDEISPLGTEEVSAVSQAWFTTKEDKDSLTNKGHKWKQGMWSKEEIDILMNNIERYLKARGIKDATEIIFEMSKDERKDFYRTIAWGLNRPLFAVYRRVLRMYDDRNHVGKYTPEEIEKLKELRIKHGNDWATIGAALGRSASSVKDRCRLMKDTCNTGKWTEEEEKRLAEVVHELTSTEPGDIVTQGVSWAAVAERVGTRSEKQCRSKWLNYLNWKQSGGTEWTKEDEINLILRIAELDVADENDINWDLLAEGWSSVRSPQWLRSKWWTIKRQIANHKDVSFPVLIKGLKQLHENQKNNPVLLENKSGSGVPNSNCNSSVQHVQIRVARLEDNTAISPSPMAALQIPVQITHVSSTDSPAASADSETITLNSGTLQTFEILPSFPLQPTGTPGTYLLQTSSSQGLPLTLTTNPTLTLAAAAPASPEQIIVHALSPEHLLNTSDNVTVQCHTPRVIIQTVATEDITSSLSQEELTVDSDLHSSDFPEPPDALEADTFPDEIPRPKMTIQPSFNNAHVSKFSDQNSTELMNSVMVRTEEEIADTDL
Consider B7, for which the binding result was “binds”.

B8: Flag-tagged DMP1 deletion mutant M10 (amino acids 87-458) (protein, not shown: small tags and cut ends)
chain: VTMTATTEVADDELSEGTVTQIQILQNDQLDEISPLGTEEVSAVSQAWFTTKEDKDSLTNKGHKWKQGMWSKEEIDILMNNIERYLKARGIKDATEIIFEMSKDERKDFYRTIAWGLNRPLFAVYRRVLRMYDDRNHVGKYTPEEIEKLKELRIKHGNDWATIGAALGRSASSVKDRCRLMKDTCNTGKWTEEEEKRLAEVVHELTSTEPGDIVTQGVSWAAVAERVGTRSEKQCRSKWLNYLNWKQSGGTEWTKEDEINLILRIAELDVADENDINWDLLAEGWSSVRSPQWLRSKWWTIKRQIANHKDVSFPVLIKGLKQLHENQKNNPVLLENKSGSGVPNSNCNSSVQHVQIRVARLEDNTAISPSPM
With B8, the binding entry is reported as “binds”.

B9: Flag-tagged DMP1 deletion mutant M2 (amino acids 1-520) (protein, not shown: small tags and cut ends)
chain: MSTVEEDSDTVTVETVNSVTFTQDTDGNLILHCPQNDPDEVDSEDSTEPPHKRLCLSSEDDQSIDDATPCISVVALPLSENDQSFEVTMTATTEVADDELSEGTVTQIQILQNDQLDEISPLGTEEVSAVSQAWFTTKEDKDSLTNKGHKWKQGMWSKEEIDILMNNIERYLKARGIKDATEIIFEMSKDERKDFYRTIAWGLNRPLFAVYRRVLRMYDDRNHVGKYTPEEIEKLKELRIKHGNDWATIGAALGRSASSVKDRCRLMKDTCNTGKWTEEEEKRLAEVVHELTSTEPGDIVTQGVSWAAVAERVGTRSEKQCRSKWLNYLNWKQSGGTEWTKEDEINLILRIAELDVADENDINWDLLAEGWSSVRSPQWLRSKWWTIKRQIANHKDVSFPVLIKGLKQLHENQKNNPVLLENKSGSGVPNSNCNSSVQHVQIRVARLEDNTAISPSPMAALQIPVQITHVSSTDSPAASADSETITLNSGTLQTFEILPSFPLQPTGTPGTYLLQTSSSQ
As for B9, the binding result is reported as “binds”.

B10: Flag-tagged DMP1 deletion mutant M8 (amino acids 1-237; 381-761) (protein, not shown: small tags and cut ends)
chain: MSTVEEDSDTVTVETVNSVTFTQDTDGNLILHCPQNDPDEVDSEDSTEPPHKRLCLSSEDDQSIDDATPCISVVALPLSENDQSFEVTMTATTEVADDELSEGTVTQIQILQNDQLDEISPLGTEEVSAVSQAWFTTKEDKDSLTNKGHKWKQGMWSKEEIDILMNNIERYLKARGIKDATEIIFEMSKDERKDFYRTIAWGLNRPLFAVYRRVLRMYDDRNHVGKYTPEEIEKLKERSKWWTIKRQIANHKDVSFPVLIKGLKQLHENQKNNPVLLENKSGSGVPNSNCNSSVQHVQIRVARLEDNTAISPSPMAALQIPVQITHVSSTDSPAASADSETITLNSGTLQTFEILPSFPLQPTGTPGTYLLQTSSSQGLPLTLTTNPTLTLAAAAPASPEQIIVHALSPEHLLNTSDNVTVQCHTPRVIIQTVATEDITSSLSQEELTVDSDLHSSDFPEPPDALEADTFPDEIPRPKMTIQPSFNNAHVSKFSDQNSTELMNSVMVRTEEEIADTDLKQEEPPSDLASAYVTEDLESPTIVHQVHQTIDDETILIVPSPHGFIQASDVIDTESVLPLTTLTDPIFQHHQEASNIIGSSLGSPVSEDSKDVEDLVNCH
With B10, the binding result is given as “binds”.
